Assay results as given in the supplement of paper PMC10849652.
The list shows a part of the results.

Amino acid sequences for entries named in this document (tags omitted). A change or cut given only in a name is not applied to a line headed by its entry.
UniProt Q8IYB7: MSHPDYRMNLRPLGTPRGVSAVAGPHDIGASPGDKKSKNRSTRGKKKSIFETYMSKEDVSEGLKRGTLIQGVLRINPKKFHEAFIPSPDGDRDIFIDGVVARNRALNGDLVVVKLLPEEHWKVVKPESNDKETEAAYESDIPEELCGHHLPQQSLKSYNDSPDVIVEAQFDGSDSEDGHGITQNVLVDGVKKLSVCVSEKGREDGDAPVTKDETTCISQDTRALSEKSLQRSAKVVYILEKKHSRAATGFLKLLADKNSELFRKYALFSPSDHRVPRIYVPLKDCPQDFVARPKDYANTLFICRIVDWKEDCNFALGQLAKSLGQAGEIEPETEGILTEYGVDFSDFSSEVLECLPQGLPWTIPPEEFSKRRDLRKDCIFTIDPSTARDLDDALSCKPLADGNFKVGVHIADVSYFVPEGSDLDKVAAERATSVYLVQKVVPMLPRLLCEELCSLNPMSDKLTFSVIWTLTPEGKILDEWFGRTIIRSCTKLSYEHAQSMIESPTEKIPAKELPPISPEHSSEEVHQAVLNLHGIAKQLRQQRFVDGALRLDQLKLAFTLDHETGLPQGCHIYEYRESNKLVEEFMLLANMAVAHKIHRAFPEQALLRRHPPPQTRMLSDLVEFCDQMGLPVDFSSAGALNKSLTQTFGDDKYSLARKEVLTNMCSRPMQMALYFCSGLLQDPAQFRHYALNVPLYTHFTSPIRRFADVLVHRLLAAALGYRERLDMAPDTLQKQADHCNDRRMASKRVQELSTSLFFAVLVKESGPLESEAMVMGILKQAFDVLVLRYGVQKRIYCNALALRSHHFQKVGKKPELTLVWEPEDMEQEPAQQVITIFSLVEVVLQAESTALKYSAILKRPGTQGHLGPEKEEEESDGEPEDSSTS
UniProt Q9UHL0: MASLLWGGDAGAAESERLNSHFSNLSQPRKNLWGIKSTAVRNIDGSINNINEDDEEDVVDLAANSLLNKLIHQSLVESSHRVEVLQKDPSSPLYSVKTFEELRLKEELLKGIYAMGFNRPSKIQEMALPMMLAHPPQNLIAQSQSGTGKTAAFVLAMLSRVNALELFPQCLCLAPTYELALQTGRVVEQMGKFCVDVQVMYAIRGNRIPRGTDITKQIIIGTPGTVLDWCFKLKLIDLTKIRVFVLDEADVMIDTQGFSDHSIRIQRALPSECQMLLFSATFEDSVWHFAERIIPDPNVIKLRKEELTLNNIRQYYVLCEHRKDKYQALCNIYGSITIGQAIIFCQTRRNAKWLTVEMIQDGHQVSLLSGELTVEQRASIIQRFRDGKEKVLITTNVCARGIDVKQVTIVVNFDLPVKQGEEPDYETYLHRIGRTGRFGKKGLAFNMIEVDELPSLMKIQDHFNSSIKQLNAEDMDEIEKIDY
UniProt P0CG22: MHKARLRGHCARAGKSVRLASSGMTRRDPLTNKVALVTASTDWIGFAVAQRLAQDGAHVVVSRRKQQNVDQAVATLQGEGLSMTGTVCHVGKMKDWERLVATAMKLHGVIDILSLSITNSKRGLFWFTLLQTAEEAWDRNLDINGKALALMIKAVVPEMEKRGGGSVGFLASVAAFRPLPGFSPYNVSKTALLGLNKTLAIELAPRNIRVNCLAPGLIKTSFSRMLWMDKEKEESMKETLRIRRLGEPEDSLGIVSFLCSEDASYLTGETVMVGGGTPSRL
UniProt Q8IWF6: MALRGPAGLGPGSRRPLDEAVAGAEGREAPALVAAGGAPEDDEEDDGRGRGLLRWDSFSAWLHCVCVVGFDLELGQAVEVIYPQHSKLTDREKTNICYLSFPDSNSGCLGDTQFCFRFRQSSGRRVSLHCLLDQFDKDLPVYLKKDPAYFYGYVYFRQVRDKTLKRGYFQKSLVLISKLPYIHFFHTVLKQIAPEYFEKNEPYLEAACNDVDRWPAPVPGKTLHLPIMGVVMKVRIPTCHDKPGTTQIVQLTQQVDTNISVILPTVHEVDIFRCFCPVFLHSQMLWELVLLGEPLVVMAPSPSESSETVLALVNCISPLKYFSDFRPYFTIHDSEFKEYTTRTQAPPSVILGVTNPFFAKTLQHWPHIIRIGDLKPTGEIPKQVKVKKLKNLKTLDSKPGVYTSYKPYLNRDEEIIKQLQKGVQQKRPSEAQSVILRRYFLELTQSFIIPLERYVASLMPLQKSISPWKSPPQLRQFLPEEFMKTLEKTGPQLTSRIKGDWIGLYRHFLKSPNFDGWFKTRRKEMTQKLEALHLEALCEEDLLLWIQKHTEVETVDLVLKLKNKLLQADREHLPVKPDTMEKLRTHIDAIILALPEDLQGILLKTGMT
UniProt Q8NDZ4: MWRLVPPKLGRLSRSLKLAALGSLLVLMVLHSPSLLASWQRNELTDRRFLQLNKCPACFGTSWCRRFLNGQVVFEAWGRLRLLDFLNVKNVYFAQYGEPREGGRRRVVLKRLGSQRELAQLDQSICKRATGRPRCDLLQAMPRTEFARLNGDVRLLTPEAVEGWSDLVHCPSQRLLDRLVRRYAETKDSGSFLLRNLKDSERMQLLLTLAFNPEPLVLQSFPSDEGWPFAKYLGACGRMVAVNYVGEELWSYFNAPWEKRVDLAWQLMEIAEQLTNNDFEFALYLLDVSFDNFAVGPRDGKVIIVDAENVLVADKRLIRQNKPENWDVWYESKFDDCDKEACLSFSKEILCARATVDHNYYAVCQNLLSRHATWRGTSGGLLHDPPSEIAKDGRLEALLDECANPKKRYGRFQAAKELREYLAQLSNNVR
UniProt O43583: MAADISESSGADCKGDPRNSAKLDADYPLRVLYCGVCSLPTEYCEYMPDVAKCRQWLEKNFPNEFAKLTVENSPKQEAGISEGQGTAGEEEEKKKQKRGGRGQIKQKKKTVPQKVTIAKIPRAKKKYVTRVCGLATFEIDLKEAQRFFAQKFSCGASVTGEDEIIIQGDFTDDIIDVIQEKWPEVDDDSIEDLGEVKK
UniProt O00148, whole entry, looked up: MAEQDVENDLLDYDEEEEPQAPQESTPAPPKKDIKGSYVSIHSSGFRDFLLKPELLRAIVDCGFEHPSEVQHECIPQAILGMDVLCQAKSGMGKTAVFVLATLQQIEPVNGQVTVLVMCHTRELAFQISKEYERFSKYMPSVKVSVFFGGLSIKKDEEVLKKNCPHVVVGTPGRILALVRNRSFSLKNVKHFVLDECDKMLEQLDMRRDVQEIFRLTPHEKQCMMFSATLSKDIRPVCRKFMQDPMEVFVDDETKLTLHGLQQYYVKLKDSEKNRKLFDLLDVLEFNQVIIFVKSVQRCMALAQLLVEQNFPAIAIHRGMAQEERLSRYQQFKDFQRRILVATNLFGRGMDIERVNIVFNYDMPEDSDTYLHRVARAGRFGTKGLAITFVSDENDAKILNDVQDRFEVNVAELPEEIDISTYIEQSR

Assays:
Assay in all cases: log2 fold change, soluble protein after heating vs DMSO (PISA); higher = thermal stabilisation; K562 cells, 10 uM, 30 min; active = over 0.2 and 3.5 SD of the protein, either way, in both replicates (recomputed)
[1] = compound: C1=CC=C(C=C1)[C@H](COC2=CC3=C(C=C2)NC(=O)N3)NC(=O)C4=CC=CN(C4=O)CC5=CC(=C(C=C5)F)F
Procedure, shortened: (§1)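 Soluble protein was defined as the supernatant after 21,000xg for 90 min. It came from K562 cells at 2×10^6 cells/mL given 10 μM compound for 30 min, heated in aliquots for 3 min across 48°C-58°C, pooled, and extracted in PBS with 0.5% NP-40 at 4°C, and was quantified by TMTpro 16plex LC-MS/MS with equalised channel sums. Thermal stability against control samples, from duplicates, is reported as log2 fold change.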

[2] = compound: CC1=C(SC2=C1C(=N[C@H](C3=NN=C(N32)C)CC(=O)N)C4=CC=C(C=C4)Cl)C
Procedure, shortened: as §1

[3] = compound: CC1=C2C(=CC=C1)N=C(N(C2=O)C3=CC=CC=C3C)CN4C=NC5=C(N=CN=C54)N
Procedure, shortened: as §1

[4] = compound: Cc1sc2c(c1C)C(c1ccc(Cl)cc1)=N[C@@H](CC(=O)OC(C)(C)C)c1nnc(C)n1-2
Procedure, shortened: as §1

[5] = compound: c1ccc([C@@H]2C[C@H]2NC2CCNCC2)cc1
Procedure, shortened: as §1

Measured: log2 fold change

DIS3L2 (UniProt Q8IYB7)
inactive: [1] -0.017 | [2] -0.026 | [3] 0.052 | [4] 0.04 | [5] 0.006

DDX25 (UniProt Q9UHL0)
inactive: [1] 0.155 | [2] -0.089 | [3] -0.383 | [4] -0.209 | [5] 0.128

DHRS4L1 (UniProt P0CG22)
inactive: [1] 0.013 | [2] 0.03 | [3] 0.055 | [4] -0.068 | [5] -0.019

DENND6A (UniProt Q8IWF6)
inactive: [1] 0.106 | [2] 0.006 | [3] 0.083 | [4] -0.062 | [5] -0.081

DIPK2A (UniProt Q8NDZ4)
inactive: [1] -0.109 | [2] 0.173 | [3] 0.056 | [4] 0.059 | [5] -0.036

DENR (UniProt O43583)
inactive: [1] -0.034 | [2] -0.01 | [3] 0.003 | [4] 0 | [5] 0.019

2 successive records already listed, quoted:
DDX25 (UniProt Q9UHL0)
inactive: [1] 0.155 | [2] -0.089 | [3] -0.383 | [4] -0.209 | [5] 0.128

DHRS4L1 (UniProt P0CG22)
inactive: [1] 0.013 | [2] 0.03 | [3] 0.055 | [4] -0.068 | [5] -0.019

Carrying on:

DDX39A (UniProt O00148)
inactive: [1] -0.174 | [2] 0.063 | [3] 0.025 | [4] 0.015 | [5] -0.01
